In paper PMC7819943, “Rice protein-binding microarrays: a tool to detect cis-acting elements near promoter regions in rice” one finds binding signal data, which are given here for 42 sequences.

Chains of the proteins cited; added tags and fusions are not shown.
UniProt Q0JBA9, entry or part of it: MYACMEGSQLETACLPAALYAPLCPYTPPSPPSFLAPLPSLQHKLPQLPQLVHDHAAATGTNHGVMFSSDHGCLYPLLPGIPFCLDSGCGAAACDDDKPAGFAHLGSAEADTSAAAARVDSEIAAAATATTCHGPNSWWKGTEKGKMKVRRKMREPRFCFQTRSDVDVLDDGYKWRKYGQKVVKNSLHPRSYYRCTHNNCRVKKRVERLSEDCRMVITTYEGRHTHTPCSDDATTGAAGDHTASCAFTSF

The list shows a part of the results.

For the assay, the target named is OsWRKY34 (Oryza sativa, UniProt Q0JBA9 1-250). The experiment in a line: protein-binding microarray (RPBM); PBS, 2% BSA, 51.3 ng/ul salmon testes DNA, 50 uM zinc acetate, 200 nM TF, 25 C, 1 h; high values mean tight binding. To be noted: protein: recombinant; tags: N-terminal polyhistidine and DsRed monomer fusion (pET32a); label: CyDye5-dUTP incorporated in the synthesized complementary strand; 3' TTTTT single-stranded linker to array surface; dsDNA, one strand shown. In short, it runs like this: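 Transcription factors were made in E. coli BL21-CodonPlus as N-terminal fusions to a polyhistidine tag and DsRed, then purified on Ni–NTA. After primer extension with Cy5-dUTP and blocking with 2% BSA, a custom Agilent array was exposed for 1 h at 25 °C to 200 nM protein in PBS, 2% BSA, salmon testes DNA and 50 µM zinc acetate. Washed arrays were scanned on an Axon 4000B, and the binding signal is per-feature fluorescence intensity in arbitrary units.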
Regarding “TTCTTCACCGTTTTGTTTTCTCTGCGCCTCAAATTTCCTTCGGAGTCACCTAGTGCAG”, the binding signal was 12000 fluorescence intensity (a.u.).
Then “TCGGTATATCTTATGTGGTTGCCTATCCCTGCTGGTTTTACGGAGTCACCTAGTGCAG”, with 10000 fluorescence intensity (a.u.).
With “TTGGAGGAAGATGTTGGTTGCTATGGGCTTCATTGTCGCGCGGAGTCACCTAGTGCAG”, the binding signal was 9160 fluorescence intensity (a.u.).
As for “CATGTTGTTTTGTTCTGGGCATCTCAGTATAATTGTATTCCGGAGTCACCTAGTGCAG”, the figure is 10100 fluorescence intensity (a.u.).
Consider “GCTTCCCTGGTTTCGTTGCTCATGTCTTCGCTGTCTCGGGCGGAGTCACCTAGTGCAG”, for which the binding signal is 12500 fluorescence intensity (a.u.).
In the case of “TCTCTCTCTCTCTCTCTCTCTCTCTCTCTCTCTAGCTTCACGGAGTCACCTAGTGCAG”, the binding signal is 9560 fluorescence intensity (a.u.).
Then “TGATTGATTACACTCGCAAGCATGCAGCTGCAGTTCTACTCGGAGTCACCTAGTGCAG”, with 9890 fluorescence intensity (a.u.); and “CCCTTTGTTTTTACGTTGAGTCTTGCACATGATCTGTTCACGGAGTCACCTAGTGCAG”, with 12000 fluorescence intensity (a.u.).
Then “TTTTGTTCAGGTACACGGGAAATATCTCATCCTTTTTGTTCGGAGTCACCTAGTGCAG”, with 9930 fluorescence intensity (a.u.); and “CAGCCCACCGCCGCATCCTCGCAACCACTGTCTCGCTCTCCGGAGTCACCTAGTGCAG”, with 17000 fluorescence intensity (a.u.).
Regarding “GATTCCCCATTCGCCCTCGCCACCGCCACCGCCACCGCCACGGAGTCACCTAGTGCAG”, the binding signal is 12400 fluorescence intensity (a.u.).
As for “TTTGGGTGGTGGCAGTTGACAGAAGAGAGTGAGCACACAGCGGAGTCACCTAGTGCAG”, the figure is 8270 fluorescence intensity (a.u.); as for “TTCGGAGGCGGAGGCGGTGGTGGGCTTGGTGGAGGTGGCGCGGAGTCACCTAGTGCAG”, 9860 fluorescence intensity (a.u.); as for “GCCACTTAGATTAGGGACCCACTTCTATTTTTAACCCTTTCGGAGTCACCTAGTGCAG”, 10800 fluorescence intensity (a.u.).
On to “TTCATTCCATAATTCATGTTCAAGCTGCTTGCTCCATGTCCGGAGTCACCTAGTGCAG”, for which the binding signal was 10400 fluorescence intensity (a.u.).
With “AATCAATGGATTATATTATTCTCCTACATGGATTTGTTCTCGGAGTCACCTAGTGCAG”, the binding signal was 8550 fluorescence intensity (a.u.).
As for “TACTATTTTTTTCTATAACTATTTATGTCACATGTAAATACGGAGTCACCTAGTGCAG”, the figure is 8300 fluorescence intensity (a.u.); as for “CTGGTTTTATAAATTGGGGTACGTGTTGTATCGGGACGATCGGAGTCACCTAGTGCAG”, 10800 fluorescence intensity (a.u.).
With “TCGTTACATGTTCTTTCATTCTCGTATTGCATTATCTGCTCGGAGTCACCTAGTGCAG”, the binding signal was 9260 fluorescence intensity (a.u.).
As for “AATTGGATTATTCTAAAGCGTTAGTGGCGCCTGTTTTCTTCGGAGTCACCTAGTGCAG”, the figure is 10200 fluorescence intensity (a.u.); as for “CACTCTCTCCCTCTCCCGCCGCCGCCGTCTCGCGCCGCCACGGAGTCACCTAGTGCAG”, 9340 fluorescence intensity (a.u.); as for “TTGTCCTCAGCCGGCAGTGTAGGTTCCGGGAGGGCGGGGTCGGAGTCACCTAGTGCAG”, 19300 fluorescence intensity (a.u.).
As for “CGCCATCCGCTCGCGATCCGGGCGTCCGGGCACACGCGGCCGGAGTCACCTAGTGCAG”, the figure is 8220 fluorescence intensity (a.u.).
As for “GTGGTTGGTGTTCCATTTTCTTGTTTTCCTACTTGATGCTCGGAGTCACCTAGTGCAG”, the figure is 9730 fluorescence intensity (a.u.).
On to “AAGTTCGAGGCCGCACTTTTGTTGTGTTTGTGTGTGTGCACGGAGTCACCTAGTGCAG”, for which the binding signal is 8300 fluorescence intensity (a.u.).
As for “AAACTAACAGTCTCATCTTTTCACTTATACTCATGTTTATCGGAGTCACCTAGTGCAG”, the figure is 9720 fluorescence intensity (a.u.); as for “GACGCCGTGGTGACCATGGCGCCGGTCAGGGGAGGGAGAGCGGAGTCACCTAGTGCAG”, 8840 fluorescence intensity (a.u.).
Take “CCGCGATCTGTTTCGTCCAGCTTAATTTGTTGCTGTTCTGCGGAGTCACCTAGTGCAG”: the binding signal was 11300 fluorescence intensity (a.u.).
As to “TAAGTGCATTTGTGGATTTCCGTATCCAATGTTTGACCGTCGGAGTCACCTAGTGCAG”, the binding signal was 9020 fluorescence intensity (a.u.).
Then “GGTGGCGGCCGCTCCCGCCGCGCCCCGGCGACGTCGCCGACGGAGTCACCTAGTGCAG”, with 8080 fluorescence intensity (a.u.).
As for “GCCCCATCGGTATCACGGTTTTGTCTGTTGGCTTCTTTTGCGGAGTCACCTAGTGCAG”, the figure is 8640 fluorescence intensity (a.u.); as for “GTACTCGGCACCAATCACGTTGGCACCGGCCTCCTTCGCACGGAGTCACCTAGTGCAG”, 8670 fluorescence intensity (a.u.); as for “CTTAACATCGTTAGCTGCAGTCTTAGCTATTCTAATTCTACGGAGTCACCTAGTGCAG”, 9140 fluorescence intensity (a.u.).
As for “TTTGATCACTCAGGCTGATTATTTTTGCTGTTAGGGTATACGGAGTCACCTAGTGCAG”, the figure is 8100 fluorescence intensity (a.u.); as for “GCTCGATTTCGTCGTGTGTTCTTCTCCGTCTCCGATGACTCGGAGTCACCTAGTGCAG”, 11000 fluorescence intensity (a.u.).
As for “GCCCACCGCCAATCACTCATCCAAGTATCCAACAAAGAACCGGAGTCACCTAGTGCAG”, the binding signal is 8450 fluorescence intensity (a.u.).
In the case of “AAAACCTCGCATTCTAACGTTACTTTATGTCTATCTTTTTCGGAGTCACCTAGTGCAG”, the binding signal was 11100 fluorescence intensity (a.u.).
As for “GATTTGATTTTAGGCTTCTTTCTACCTTGGTTTTTCATCCCGGAGTCACCTAGTGCAG”, the figure is 8700 fluorescence intensity (a.u.).
As to “TTATATTGTTAACGTTTCTTGATGTTTTTTAAGTTTTTGACGGAGTCACCTAGTGCAG”, the binding signal is 8320 fluorescence intensity (a.u.).
As for “ATCGGAGACTGACTGAGTGAAGGTTGGTTGGTTCACACTTCGGAGTCACCTAGTGCAG”, the figure is 8750 fluorescence intensity (a.u.); as for “ATCGTTGGGGTAGTTTATTAAGCAGTATAGGGTTAGATACCGGAGTCACCTAGTGCAG”, 8900 fluorescence intensity (a.u.); as for “CCCGACAGCGCCGCCTCCATTCCTCTAAAGTCTAAACCTACGGAGTCACCTAGTGCAG”, 9790 fluorescence intensity (a.u.).
